# According to PubChem BioAssay AID493014 (National Center for Advancing Translational Sciences (NCATS), 2011):
# The campaign covered roughly 340,000 compounds. About 170 (0.05%) were called active. Inconclusive results, whose numbers are uncertain, are shown with a selection of clear calls. Calls follow the shape of the dose curve; as a rule, active = well fitted inhibition curve with a large enough effect in the signal ratio, with a control signal flat (not every such curve was filed as active); inconclusive = small, poorly fitted or top-dose-only effect, or effect the other way, or a change in a side signal; inactive = flat fitted curve, though single readings scatter; the % refers to the signal ratio. Where the call is inconclusive, the potency comes from a doubtful curve fit.
# Test: qHTS Assay to Find Inhibitors of Chronic Active B-Cell Receptor Signaling;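 as to activity change, negative = inhibition: plate controls were basal doxycycline-induced cells for no effect and cells given 10 µM MG132 for full effect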
# Conditions: ABC-DLBCL IkBa-CBG/CBR reporter, luminescence ratio (green luciferase fused to IkBa over red control in TMD8 lymphoma cells), 4 h; activity change, negative = inhibition: at 46.1 µM (top of the series) unless noted
# How it was run: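 Concentration-response series (up to 46 uM) were applied to TMD8 dual-reporter cells for 4 h at 37C with doxycycline. Green/red ratio, after filter-overlap correction, defined %Activity; red signal alone was normalised to basal cells and zero luminescence.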
# Potency is read from the fitted curve at half-maximal effect.
SMILES,Potency,"activity change, negative = inhibition"
CCOC(=O)COc1ccc(/C=C2\NC(=S)N(CC)C2=O)cc1,"inconclusive: 32.6 µM [falling, partial curve, poor fit]",
CCN(CC)S(=O)(=O)c1cc(C)c(C)cc1Br,,inconclusive: 0.267%
CCCCn1c(=O)cc(N2CCOCC2)[nH]c1=O,,inconclusive: 4.7%
Cc1cc(Nc2ccc(Br)cc2F)n2nc(C)nc2n1,,inactive
CCn1c(=O)c(C(=O)Nc2ccsc2C(=O)OC)c(O)c2ccccc21,"inconclusive: 8.2 µM [falling, partial curve, poor fit]",
CCOc1ccccc1N(C(=O)Nc1cccc(Cl)c1)C1=NC(C)CS1 (centres undefined),,inconclusive: 4.53%
CCCOc1ccc(CCN2CCC(=O)NC2=O)cc1C,,inconclusive: -9.16%
COc1cccc(C2NC(=O)NC(C)=C2C(=O)Nc2ccc(C)cc2)c1OC (centres undefined),,inconclusive: 2.83%
CCCN(CCC)S(=O)(=O)c1ccc(NS(C)(=O)=O)cc1,,inconclusive: 4.24%
CCOC(=O)c1cc(C#N)c(N2CCN(C)CC2)nc1-c1ccccc1,,inactive
CC(=O)c1cccc(S(=O)(=O)N2CCC(C(=O)Oc3ccc(-c4nnco4)cc3)CC2)c1,"inconclusive: 23.1 µM [falling, partial curve]",
CN(Cc1ccccc1)Cc1c[nH]c2ccccc12,,inactive
CN(C)S(=O)(=O)NCc1ccc2c(c1)OCO2,,inconclusive: 4.71%
C/C(=N\S(=O)(=O)c1ccc(C)cc1)N1CCCCC1,,inconclusive: 7.83%
COC(=O)N/N=C/c1ccccc1Cl,,inactive
Cc1cccc(NC(=O)c2ccc(C(=O)Nc3cccc(C)c3)nc2)c1,"inconclusive: 5.8 µM [falling, partial curve, poor fit]",
COc1ccc(OC)c(NC(=O)COC(=O)CCc2nc3ccccc3c(=O)[nH]2)c1,,inactive
CC12CCC(C(=O)NNc3ccc([N+](=O)[O-])cc3)(OC1=O)C2(C)C (centres undefined),,inconclusive: 0.883%
CC(C)N(C(=O)CSc1nnc(CNc2ccc(F)cc2)o1)C(C)C,,inactive
CCn1nc(C(=O)Nc2cccc(C(F)(F)F)c2)c(Cl)c1Cl,,inconclusive: -2.08%
CC(C)(C)OC(=O)N1CCN(c2ccc([N+](=O)[O-])cc2)CC1,,inactive
O=C(NNC(=O)c1ccccc1OCc1ccc(F)cc1)c1ccncc1,"inconclusive: 18.4 µM [falling, partial curve, poor fit]",
O=C(N/N=C/c1ccco1)c1ccc(NC(=O)c2ccccc2Cl)cc1,,inactive
O=C(NCc1cccnc1)Nc1ccc(Br)cc1,,inconclusive: 2.45%
O=C(COC(=O)c1ccc(Cl)nc1)Nc1nnc(-c2ccccc2)o1,"inconclusive: 16.4 µM [falling, single point]",
O=C(N/N=C/c1ccc(O)cc1)c1cccc(N/N=C/c2ccc(O)cc2)c1,"inconclusive: 11.2 µM [falling, partial curve]",
Cc1c(Cl)cccc1NC(=O)CNC(=O)C1CCN(C(=O)Nc2ccccc2)CC1,,inconclusive: 3.55%

SMILES,Potency,"activity change, negative = inhibition"
Oc1ccc2[nH]cnc2c1CN1CCCCC1,,inconclusive: -17.2%
O=C(Nc1cccn(Cc2c(F)cccc2Cl)c1=O)NC1CCCCC1,,inconclusive: -27%
COc1c(Cl)cc(C(=O)Nc2ccccc2-c2ccccc2)cc1Cl,"inconclusive: 11.2 µM [rising, single point]",
CCOC(=O)C1=C(N)N2C(=O)CSC2=C(C(=O)OC)C1,,inconclusive: 5.16%
COc1ccccc1C(=O)Nc1nnc(-c2ccc(F)cc2)s1,"inconclusive: 31.6 µM [rising, single point]",
CCOC(=O)Cn1cc(C(=O)c2ccco2)c2ccccc21,,inactive
O=C(Cn1c(=O)oc2cc(S(=O)(=O)NCc3ccccc3)ccc21)Nc1ccc(F)c(Cl)c1,,inconclusive: -25.1%
CC1(C)Cc2cccc(C(=O)Nc3ccc(Cl)cc3)c2O1,,inconclusive: 18.7%
CC1=Nc2ccccc2/C1=C\c1sc(Nc2ccc(C)cc2)nc1O,"inconclusive: 11.6 µM [falling, partial curve]",
COc1ccccc1/C=N\Nc1cn[nH]c(=O)c1Cl,"inconclusive: 25.1 µM [falling, partial curve]",
COc1ccc(CCC(=O)NC2CC(=O)N(c3cccc(F)c3)C2)cc1 (centres undefined),,inactive
Fc1ccc(CSc2ccc(-c3cccs3)nn2)cc1,,inconclusive: -1.4%
C=CCNC(=S)NCc1ccc(CNC(=S)NCC=C)cc1,,inactive
COc1ccc(/C=N/Nc2ccccn2)c(OC)c1OC,,inactive
Cc1ccc(OCC(=O)Nc2ccc(C)c(S(=O)(=O)N3CCCCC3)c2)c([N+](=O)[O-])n1,,inconclusive: 10.4%
O=C(COc1ccccc1)N1CCN(C(=O)c2ccc([N+](=O)[O-])cc2)CC1,"inconclusive: 35.5 µM [rising, single point]",
CCCNC(=O)CSc1nc(-c2cccs2)cc(C(F)(F)F)n1,,inactive
CCOC(=O)C1=C(CS(=O)(=O)c2ccc(C)cc2)NC(=O)NC1c1ccc(O)c(OC)c1 (centres undefined),,inconclusive: 0.681%
Cc1cc(CNC(=O)c2cccc3c2C(=O)c2ccc(-c4ccc(F)cc4OCc4ccccc4)cc2S3(=O)=O)c(C(F)(F)F)o1,,inactive
CCOCCCNc1nc2c(C)cccn2c(=O)c1/C=C1\SC(=S)N(C(C)CC)C1=O (centres undefined),,inconclusive: 0.299%
Cc1ccc(C2(CCN)CCOC(C(C)C)C2)cc1 (centres undefined),,inconclusive: -24%
O=C(CSc1nnnn1C1CCCCC1)N1CCN(C(=O)c2ccco2)CC1,,inconclusive: -28.3%
C/C(=N\NC(=O)c1nc2ccccn2c1C)c1cccc([N+](=O)[O-])c1,,inactive
COc1ccc(S(=O)(=O)N2CCCC2CNC(=O)C(=O)Nc2ccc(C)cc2)cc1 (centres undefined),,inconclusive: -10.1%
Cc1ccc(C#CC[N+](C)(C)CC#Cc2ccccc2)cc1,,inconclusive: -17.6%
Nc1ccc(-c2cc3ccccc3oc2=O)cc1,"inconclusive: 17.8 µM [falling, partial curve, poor fit]",
Clc1cccc(-c2nnc(SC/C=C/c3ccccc3)n2Cc2ccco2)c1,,inconclusive: -0.526%

# Given tab-delimited: part of the list above
SMILES	Potency	activity change, negative = inhibition
CC(=O)c1cccc(S(=O)(=O)N2CCC(C(=O)Oc3ccc(-c4nnco4)cc3)CC2)c1	inconclusive: 23.1 µM [falling, partial curve]	
CCCNC(=O)CSc1nc(-c2cccs2)cc(C(F)(F)F)n1		inactive
CCOCCCNc1nc2c(C)cccn2c(=O)c1/C=C1\SC(=S)N(C(C)CC)C1=O (centres undefined)		inconclusive: 0.299%
